In patent US8618097B2, “Pyrimidyl cyclopentanes as AKT protein kinase inhibitors” (Array Biopharma, Inc., priority 2007, dated 2013):
Some of these results come from one statement about several compounds together.

Chains of the proteins cited; added tags and fusions are not shown. Lines headed by an entry give the natural chain unless they say otherwise; changes in a name come on top.
UniProt P31749: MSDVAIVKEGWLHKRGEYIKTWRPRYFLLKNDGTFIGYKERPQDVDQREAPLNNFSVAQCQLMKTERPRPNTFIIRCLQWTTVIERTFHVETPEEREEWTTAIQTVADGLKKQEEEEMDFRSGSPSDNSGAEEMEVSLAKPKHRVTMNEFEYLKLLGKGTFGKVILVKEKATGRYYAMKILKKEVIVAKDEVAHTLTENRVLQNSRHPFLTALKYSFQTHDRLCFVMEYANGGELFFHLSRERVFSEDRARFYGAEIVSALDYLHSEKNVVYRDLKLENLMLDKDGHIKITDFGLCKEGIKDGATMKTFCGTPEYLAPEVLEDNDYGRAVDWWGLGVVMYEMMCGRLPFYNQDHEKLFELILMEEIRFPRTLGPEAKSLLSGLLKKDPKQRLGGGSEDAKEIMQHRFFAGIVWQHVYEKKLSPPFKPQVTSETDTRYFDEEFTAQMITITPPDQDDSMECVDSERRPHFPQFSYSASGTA

Molecular target: full-length human recombinant active AKT-1 (Homo sapiens, UniProt P31749)
Experiment: AKT-1 Kinase Assay (IMAP fluorescence polarization)
Format: biochemical
Conditions: phosphorylation of fluorescently-labeled peptide (Crosstide) by AKT-1, fluorescent polarization, IMAP kit

Structure (SMILES) | IC50
CC(C)N1CCC[C@H]1[C@@H](C(=O)N1CCN(c2ncnc3c2[C@H](C)C[C@H]3O)CC1)c1ccc(Cl)c(F)c1 [Example 29, (S)-2-(4-chloro-3-fluorophenyl)-1-(4-((5R,7R)-7-hydroxy-5-methyl-6,7-dihydro-5H-cyclopenta[d]pyrimidin-4-yl)piperazin-1-yl)-2-((S)-1-isopropylpyrrolidin-2-yl)ethanone] | < 1000 nM
C[C@@H]1C[C@H](O)c2ncnc(N3CCN(C(=O)[C@@H](c4ccc(Cl)cc4)[C@@H]4CCC(C)(C)N4C)CC3)c21 [Example 30, (S)-2-(4-chlorophenyl)-1-(4-((5R,7S)-7-hydroxy-5-methyl-6,7-dihydro-5H-cyclopenta[d]pyrimidin-4-yl)piperazin-1-yl)-2-((S)-1,5,5-trimethylpyrrolidin-2-yl)ethanone] | < 1000 nM
CCN1[C@H]([C@@H](C(=O)N2CCN(c3ncnc4c3[C@H](C)C[C@@H]4O)CC2)c2ccc(Cl)cc2)CCC1(C)C [Example 31, (S)-2-(4-chlorophenyl)-2-((S)-1-ethyl-5,5-dimethylpyrrolidin-2-yl)-1-(4-((5R,7S)-7-hydroxy-5-methyl-6,7-dihydro-5H-cyclopenta[d]pyrimidin-4-yl)piperazin-1-yl)ethanone] | < 1000 nM
CCN1CCC[C@H]1[C@@H](C(=O)N1CCN(c2ncnc3c2[C@H](C)C[C@H]3O)CC1)c1ccc(C2CC2)cc1 [Example 32, (S)-2-(4-cyclopropylphenyl)-2-((S)-1-ethylpyrrolidin-2-yl)-1-(4-((5R,7R)-7-hydroxy-5-methyl-6,7-dihydro-5H-cyclopenta[d]pyrimidin-4-yl)piperazin-1-yl)ethanone] | < 1000 nM
C[C@@H]1C[C@@H](O)c2ncnc(N3CCN(C(=O)[C@@H](c4ccc(Cl)cc4)[C@@H]4CCCN4CC(F)(F)F)CC3)c21 [Example 33] | < 1000 nM
CC1(C)CC[C@@H]([C@@H](C(=O)N2CCN(c3ncnc4c3[C@H](CF)C[C@H]4O)CC2)c2ccc(Cl)cc2)N1 [Example 35, (S)-2-(4-chlorophenyl)-2-((S)-5,5-dimethylpyrrolidin-2-yl)-1-(4-((5R,7R)-5-(fluoromethyl)-7-hydroxy-6,7-dihydro-5H-cyclopenta[d]pyrimidin-4-yl)piperazin-1-yl)ethanone] | < 1000 nM
C[C@@H]1CC(F)(F)c2ncnc(N3CCN(C(=O)[C@@H](c4ccc(Cl)cc4)[C@@H]4CCC(C)(C)N4)CC3)c21 [Example 36] | < 1000 nM
C[C@@H]1C[C@@H](O)c2ncnc(N3CCN(C(=O)[C@@H](c4ccc(Cl)c(F)c4)[C@H]4CCCN4)CC3)c21 [Example 37, (S)-2-(4-chloro-3-fluorophenyl)-1-(4-((5R,7R)-7-hydroxy-5-methyl-6,7-dihydro-5H-cyclopenta[d]pyrimidin-4-yl)piperazin-1-yl)-2-((R)-pyrrolidin-2-yl)ethanone] | < 1000 nM
C[C@@H]1C[C@@H](O)c2ncnc(N3CCN(C(=O)[C@@H](c4ccc(Cl)cc4)[C@H]4CCCN4C)CC3)c21 [Example 38, (S)-2-(4-chlorophenyl)-1-(4-((5R,7R)-7-hydroxy-5-methyl-6,7-dihydro-5H-cyclopenta[d]pyrimidin-4-yl)piperazin-1-yl)-2-((R)-1-methylpyrrolidin-2-yl)ethanone] | < 1000 nM
C[C@@H]1C[C@@H](O)c2ncnc(N3CCN(C(=O)[C@@H](c4ccc(Cl)cc4)[C@@H]4CCCN4CC(F)F)CC3)c21 [Example 39, (S)-2-(4-chlorophenyl)-2-((S)-1-(2,2-difluoroethyl)pyrrolidin-2-yl)-1-(4-((5R,7R)-7-hydroxy-5-methyl-6,7-dihydro-5H-cyclopenta[d]pyrimidin-4-yl)piperazin-1-yl)ethanone] | < 1000 nM
C[C@@H]1C[C@@H](O)c2ncnc(N3CCN(C(=O)[C@@H](c4ccc(Cl)cc4)[C@@H]4CCCN4CCF)CC3)c21 [Example 40, (S)-2-(4-chlorophenyl)-2-((S)-1-(2-fluoroethyl)pyrrolidin-2-yl)-1-(4-((5R,7R)-7-hydroxy-5-methyl-6,7-dihydro-5H-cyclopenta[d]pyrimidin-4-yl)piperazin-1-yl)ethanone] | < 1000 nM
